Laboratory results: PubChem BioAssay AID602196 (INSERM, 2012)

Assay: 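Modifiers of cisplatin sensitivity in A549 cells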
Cells: human A549 lung cancer cells
Reagents: siRNA pair against human genes
Timing: 48 h transfection before cisplatin; time from cisplatin to read-out not stated
Treatment: cisplatin at a dose killing half of control-siRNA cells; exact dose and duration not given
Detection: 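Cisplatin cell death as a shift from the 50% death seen with control siRNA; siRNAs toxic or growth-blocking alone scored 0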
Direction: two-siRNA summed score (-2 to +2): higher = both siRNAs protect from cisplatin killing; -2 means both sensitise; mean protection from cisplatin (shift in death): higher = protection from cisplatin killing
Active means: 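Each siRNA scores 0 if harmful alone by LDH or WST-1, otherwise +1 if it reduces and -1 if it increases cisplatin killing; a gene is active when both siRNAs agree (sum +2 or -2)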
Calls: active = both siRNAs shift cisplatin killing the same way; inactive = no consistent shift, or siRNA harmful alone
In all, the deposit lists about 23,000 reagents; below is a part drawn at random. In the full data, 455 (2%) got an active call. 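Active includes both protection and sensitisation; some change values fall well beyond the stated -50 to +50 range.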 Not all columns of the deposit are shown. Not stated in the record: the amount of reagent.

no.	target gene	two-siRNA summed score (-2 to +2)	mean protection from cisplatin (shift in death) (%)	Outcome
1	GPR142	-1	1.2	inactive
2	CABP2	0	-1.3	inactive
3	ACTR3B	0	2.4	inactive
4	VAMP7	-1	-10.5	inactive
5	LOC90342	0	6.1	inactive
6	LOC344423	0	0	inactive
7	LOC401197	0	8.3	inactive
8	LOC400855	0	8.5	inactive
9	CIAPIN1	0	7.1	inactive
10	NR2F2	-1	-17.2	inactive
11	PARP4	0	-6.4	inactive
12	DRC3	0	2.3	inactive
13	NFKBIE	0	-16	inactive
14	PRRC1	0	6.6	inactive
15	TFF1	-2	-32.2	active
16	TM4SF5	-1	-4.1	inactive
17	LOC440576	0	8	inactive
18	TMEM54	0	-4.5	inactive
19	LOXL1	0	-0.3	inactive
20	DDX25	0	4.2	inactive
21	LOC391088	0	2.7	inactive
22	NPHS1	0	-7.4	inactive
23	NAIF1	1	9.4	inactive
24	DSG4	0	7.2	inactive
25	LOC390244	0	1.3	inactive
26	CHAC1	0	9.5	inactive
27	CIDEA	0	-3.4	inactive
28	LOC391730	1	15.5	inactive
29	ZNF282	0	0	inactive
30	SDK2	0	-3.5	inactive
31	OR14A16	0	7.7	inactive
32	RIGI	0	9.1	inactive
33	ACRV1	-1	1.9	inactive
34	PARD3	1	18.6	inactive
35	RASSF2	1	19.9	inactive
36	C2orf15	0	-5.7	inactive
37	LOC440011	0	15.8	inactive
38	SNF8	0	-5.9	inactive
39	DNAJC28	0	-9.3	inactive
40	HYI	-1	-18.5	inactive
41	KIAA0830	0	-0.9	inactive
42	ZNF497	1	9.2	inactive
43	CD44	1	18.1	inactive
44	SMG7-AS1	0	6.6	inactive
45	SLC22A11	0	1.8	inactive
46	ULK1	-1	-8.1	inactive
47	ENTPD1	0	-0.4	inactive
48	CCNO	0	3.9	inactive
49	LOC402253	1	7.3	inactive
50	LIAS	0	-3.5	inactive
51	DCC	0	4.4	inactive
52	CTU1BP	-1	-10.2	inactive
53	CDA	0	6.3	inactive
54	GAA	-1	-1.7	inactive
55	CATSPER3	0	1.7	inactive
56	PCMT1	0	0.1	inactive
57	LOC442209	0	24.5	inactive

Laid out differently: results already given.
ULK1
- two-siRNA summed score (-2 to +2): -1
- mean protection from cisplatin (shift in death) (%): -8.1
- Outcome: inactive

ENTPD1
- two-siRNA summed score (-2 to +2): 0
- mean protection from cisplatin (shift in death) (%): -0.4
- Outcome: inactive

CCNO
- two-siRNA summed score (-2 to +2): 0
- mean protection from cisplatin (shift in death) (%): 3.9
- Outcome: inactive

LOC402253
- two-siRNA summed score (-2 to +2): 1
- mean protection from cisplatin (shift in death) (%): 7.3
- Outcome: inactive

LIAS
- two-siRNA summed score (-2 to +2): 0
- mean protection from cisplatin (shift in death) (%): -3.5
- Outcome: inactive

DCC
- two-siRNA summed score (-2 to +2): 0
- mean protection from cisplatin (shift in death) (%): 4.4
- Outcome: inactive

CTU1BP
- two-siRNA summed score (-2 to +2): -1
- mean protection from cisplatin (shift in death) (%): -10.2
- Outcome: inactive

CDA
- two-siRNA summed score (-2 to +2): 0
- mean protection from cisplatin (shift in death) (%): 6.3
- Outcome: inactive
